Data on two molecules can be found in article PMC5222588, “Binding of Myomesin to Obscurin-Like-1 at the Muscle M-Band Provides a Strategy for Isoform-Specific Mechanical Protection” (Structure(London, England:1993), 2017).

Results are given in words; binding and its absence hold for the method and conditions named. Some results given as binding are weak or reduced against the parent protein; the word gives no strength.

Assay [1] deals with T1, obscurin-like-1 third immunoglobulin domain (OL3) (human) (UniProt O75147).
T1 sequence: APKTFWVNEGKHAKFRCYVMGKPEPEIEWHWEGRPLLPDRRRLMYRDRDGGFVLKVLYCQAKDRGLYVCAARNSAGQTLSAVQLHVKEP
As to the kind of experiment: SAXS; 0.5–4.5 mg/mL in 20 mM HEPES pH 7.5, 500 mM NaCl, 1 mM DTT; 18°C; BM29 (ESRF); both purified.

In assay [2] the target is myomesin region encompassing the fourth and fifth Fn-III domains (My4LMy5) (human) (UniProt P52179). As to the kind of experiment: crystal structure; OL3:My4LMy5 complex at 3.0 mg/mL; 20% PEG8000, 0.1 M Tris-HCl pH 8.5, 0.2 M MgCl2, matrix microseeding; 3.1 Å, space group C2; both purified.
For assay [3], the target named is T1, obscurin-like-1 third immunoglobulin domain (OL3) (human). The assay is described as above.

B1: myomesin region encompassing the fourth and fifth Fn-III domains (My4LMy5) (domain or fragment, human)
chain: PAAPLDVKCLEANKDYIIISWKQPAVDGGSPILGYFIDKCEVGTDSWSQCNDTPVKFARFPVTGLIEGRSYIFRVRAVNKMGIGFPSRVSEPVAALDPAEKARLKSRPSAPWTGQIIVTEEEPSEGIVPGPPTDLSVTEATRSYVVLSWKPPGQRGHEGIMYFVEKCEAGTENWQRVNTELPVKSPRFALFDLAEGKSYCFRVRCSNSAGVGEPSEATEVTVVGDKLDIP
notes: myomesin (MYOM1), human, Fn-III domains My4 and My5 with the linker L between them; My4 begins near residue 510 (My4LH is 510-618); My5 is in the crystallised protein but invisible in the electron density; Construct limits are in the Supplemental Experimental Procedures; also called My4L (name of the part visible in the crystal); source: E. coli, co-expressed with GST-OL3 or GST-O3 from a …
As to B1, the figures for the binding entry in assay [1], in assay [2] and in assay [3] were “binds”, “binds weakly” and “binds”, respectively.

B2: obscurin-like-1 third immunoglobulin domain (OL3) (domain or fragment, UniProt O75147 251-339)
chain: APKTFWVNEGKHAKFRCYVMGKPEPEIEWHWEGRPLLPDRRRLMYRDRDGGFVLKVLYCQAKDRGLYVCAARNSAGQTLSAVQLHVKEP
For B2, the binding entry in assay [3] was “binds weakly”.
